For this experiment, the target named is T1, SIVmac239 Nef (66-235) (SIVmac239).
T1 sequence: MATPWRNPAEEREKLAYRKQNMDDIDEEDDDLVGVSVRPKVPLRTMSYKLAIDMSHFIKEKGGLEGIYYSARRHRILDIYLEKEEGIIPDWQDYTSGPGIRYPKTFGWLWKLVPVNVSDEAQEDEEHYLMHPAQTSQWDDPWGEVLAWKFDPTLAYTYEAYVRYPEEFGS
The experiment in a line: SEC; analytical gel filtration, Superdex S75 (10/300 GL); 20 mM HEPES (pH 8.0), 100 mM NaCl, 1 mM TCEP, room temperature; both purified.

Amino acid sequences for entries named in this document (tags omitted). Residues count along the entry.
UniProt P20963, residues 71-135: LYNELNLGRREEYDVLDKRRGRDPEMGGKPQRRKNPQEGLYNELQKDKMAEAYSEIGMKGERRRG

No constants are given. Whether binding was seen depends on the method and setting. Some entries that bind do so weakly or less than the wild type.

As for “CD3 ζ (71-135) (from UniProt P20963-1 71-135) (domain or fragment)”, the binding entry is recorded as “binds”.

Values taken from PMC5585231.
